# Assay results reported in patent publication US9375459B2, “Cyclic peptides with an anti-neoplasic and anti-angiogenic activity” (priority 2011, dated 2016).
# Part of at least one peptide drawing is inferred or uncertain, most often the ends. Where a SMILES comes first, the peptide text is derived from it.
# Columns and labels:
# M14 (melanoma) = test: SRB cytotoxicity on M14 melanoma cells; type: cell-based; conditions: human melanoma cells, 50 μM concentration, FIG. 7
# Procedure: Negative control cells were cultured on a volume of vehicle equal to that of the experimental samples. An “x-y” curve (dose-response) was established with the percent of surviving cells, compared in respect to the negative control cells, and the following parameters were estimated: 50% growth inhibition (GI50); Total growth inhibition (TGI); and the lethal concentration 50 (LC50), that is the concentration causing the 50% of cell death (Boyd M R, Paull K D, and Rubinstein L R (1992) “Data display and analysis strategies for the NCI Disease Oriented In-Vitro Antitumor Drug Screen, in Cytotoxic Anticancer Drugs: Models and Concept for Drug Discovery and Development” (Baleriote F A, Corbett T H and Baker L H eds) pp 11-34, Kluwer Academia Publishers, Boston).
# Were considered as cytotoxic peptides all those peptides being able of inhibiting 50% of the cellular proliferation, in a dose-dependent manner, and showing GI50 values below 100 μM, at least in one of the cell lines studied. The human tumor cell lines used were: HEp-2 (larynx carcinoma), A549 (lung epithelial adenocarcinoma), M14 (melanoma), Colo 205 (colon adenocarcinoma), Ls174T (colon adenocarcinoma), LnCAP (prostate carcinoma), PC-3 (prostate carcinoma) and H 125 (non-small cell lung adenocarcinoma). […]
# [1] = test system: human colon cancer Ls174T cell line implanted in NIH athymic mice; test: Ls174T colon cancer tumor model in athymic mice; type: in vivo
# Procedure: The Ls174T colon cancer tumor model in athymic mice was used to evaluate the potential effect of the linear Gly255-Ser274 segment (peptide N06P87), compared to the CIGB370r polypeptide, on human tumor models. Human tumor cells were administered by subcutaneous route, and the molecules of interest or the vehicle were administered by intratumor route (100 μL). After 13 days, when tumors were implanted and palpable, administration schedules started for the molecules of interest (FIG. 8A). The peptide N06P87 was administered in down-scaled doses: two administrations of 600 μM each every 48 h, followed by 4 administrations of 330 μM each every 48 h, and lastly 4 administrations of 90 μM each every 72 h. The CIGB370r peptide was administered weekly for 4 weeks.
# The effects of the linear segment Gly255-Ser274 (peptide N06P87) and two other model cyclic peptides of the present invention were compared to the effect of the CIGB370r polypeptide in the Ls174T human colon cancer model in athymic NIH mice, with the dose and schedule shown in FIG. 19. After 13 days, once the tumors were implanted and palpable, biomolecules began to be administered (FIG. 19 A). The peptides were administered in down-scaled doses: 2 administrations of 600 μM every 48 h, followed by 4 administrations of 330 μM each every 48 h, and 4 final 90 μM administrations every 72 h. […]
smiles,measurement,setting,value
CC(C)C[C@H](NC(=O)[C@H](Cc1ccccc1)NC(=O)[C@H](CC(=O)O)NC(=O)[C@H](CCCNC(=N)N)NC(=O)CNC(=O)[C@@H](NC(=O)[C@H](CC(N)=O)NC(=O)[C@H](CO)NC(=O)[C@H](CC(N)=O)NC(=O)[C@H](Cc1ccccc1)NC(=O)CNC(=O)[C@H](Cc1ccc(O)cc1)NC(=O)[C@@H](NC(=O)[C@@H](NC(=O)[C@H](CC(=O)O)NC(=O)CN)[C@@H](C)O)C(C)C)[C@@H](C)O)C(=O)N[C@@H](CO)C(=O)N[C@H](C(=O)N[C@H](C(=O)N[C@@H](CO)C(N)=O)[C@@H](C)O)[C@@H](C)O [Peptide N06P87] (H-GDTVYGFNSNTGRDFLSTTS-NH2),inhibition of cellular proliferation at 50 μM,M14 (melanoma),capable to inhibit cellular proliferation
same,T/C values related to the mean tumor volume,[1]; FIG. 19B,72%
same,T/C ratio referred to the tumor volume,[1]; day 35,72%
